Source: doi:10.1371/journal.pone.0140310, primary screening data, rounded.

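Human melanoma cell lines in 1,536-well plates were treated with two drugs together for 72 h, then fixed, stained and imaged. The read-out is the fraction of cleaved-PARP-positive nuclei, in % of that fraction in the DMSO control; 200 means twice the control level of this apoptosis marker. Every drug was used at one fixed concentration, the higher of two screened. No replicate spread is given; individual values may be noisy. Basal and induced levels differ widely between cell lines.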
Only some of the drugs and lines screened are listed, without regard to their results.
An entry leaves out what has no value listed here.
A dash means that no value is listed here.

Compounds and concentrations:
dorsomorphin, 2 µM: c1cc(-c2cnn3cc(-c4ccc(OCCN5CCCCC5)cc4)cnc23)ccn1
embelin, 6 µM: CCCCCCCCCCCC1=C(O)C(=O)C=C(O)C1=O
vismodegib, 5 µM: CS(=O)(=O)c1ccc(C(=O)Nc2ccc(Cl)c(-c3ccccn3)c2)c(Cl)c1
AS-252424, 5 µM: O=C1NC(=O)/C(=C/c2ccc(-c3ccc(F)cc3O)o2)S1
cediranib, 2 µM: COc1cc2c(Oc3ccc4[nH]c(C)cc4c3F)ncnc2cc1OCCCN1CCCC1
BI-78D3, 1 µM: O=c1[nH]nc(Sc2ncc([N+](=O)[O-])s2)n1-c1ccc2c(c1)OCCO2
MK-2206, 2 µM: NC1(c2ccc(-c3nc4ccn5c(=O)[nH]nc5c4cc3-c3ccccc3)cc2)CCC1
T0901317, 7 µM: O=S(=O)(c1ccccc1)N(CC(F)(F)F)c1ccc(C(O)(C(F)(F)F)C(F)(F)F)cc1
VX-702, 2 µM: NC(=O)c1ccc(N(C(N)=O)c2c(F)cccc2F)nc1-c1ccc(F)cc1F

| Pair | 501mel | COLO 829 | SK-MEL-30 | WM115 | LB2518-MEL | MeWo | MZ2-MEL | SK-MEL-28 | WM451Lu |
|---|---|---|---|---|---|---|---|---|---|
| cediranib + T0901317 | 192 | 35.6 | 134 | 48.2 | 61.2 | 70.6 | 17.2 | 82.6 | 71.0 |
| T0901317 + VX-702 | 139 | 97.4 | 112 | 112 | 92.3 | 42.6 | 53.9 | 301 | 62.3 |
| AS-252424 + vismodegib | 49.8 | 76.9 | 106 | 114 | 109 | 73.0 | 127 | 75.3 | 138 |
| dorsomorphin + VX-702 | 297 | 114 | 163 | 52.1 | 155 | 222 | 61.2 | 80.8 | 113 |
| embelin + MK-2206 | 196 | 73.9 | 148 | 44.4 | 95.4 | 114 | 62.6 | 160 | 159 |
| T0901317 + MK-2206 | 85.6 | 214 | 137 | 147 | 40.0 | 106 | 86.4 | 54.5 | 126 |
| AS-252424 + T0901317 | 215 | 62.6 | 73.2 | 96.7 | 183 | 45.6 | 112 | 141 | 30.1 |
| cediranib + MK-2206 | - | 99.9 | 209 | 123 | 110 | 81.1 | 63.8 | 129 | 44.2 |
| MK-2206 + VX-702 | - | 174 | 166 | 207 | 136 | 37.6 | 85.8 | 111 | 72.6 |
| cediranib + VX-702 | - | 134 | 116 | 45.3 | 90.4 | 128 | 157 | 57.4 | 62.0 |
| BI-78D3 + MK-2206 | - | 115 | 130 | 213 | 118 | 38.4 | 68.8 | 136 | 88.5 |
| cediranib + AS-252424 | 121 | 151 | 97.8 | 43.3 | 144 | 147 | 52.3 | 91.5 | 138 |
| MK-2206 + dorsomorphin | 155 | 126 | 124 | 196 | 166 | 115 | 214 | 63.6 | 232 |
| BI-78D3 + vismodegib | - | 202 | 81.9 | 253 | - | 21.8 | - | 62.7 | 130 |
| embelin + dorsomorphin | - | 63.0 | 129 | 149 | - | 38.6 | - | 187 | 45.7 |
| dorsomorphin + T0901317 | 214 | 82.5 | 176 | 226 | 57.3 | 166 | 192 | 145 | 86.7 |
| embelin + BI-78D3 | 158 | 84.4 | 140 | 51.0 | 120 | 90.5 | 97.6 | 72.1 | 191 |
| MK-2206 + vismodegib | - | 140 | 97.0 | 193 | 152 | 76.4 | 131 | 49.1 | 146 |
| dorsomorphin + cediranib | - | 87.0 | 77.2 | 126 | - | 81.1 | - | 133 | 31.6 |
| vismodegib + VX-702 | - | 120 | 27.1 | 108 | - | 61.6 | - | 56.3 | 28.7 |
| BI-78D3 + T0901317 | 119 | 132 | 110 | 107 | 57.1 | 170 | 87.1 | 51.3 | 17.3 |
| BI-78D3 + VX-702 | - | 134 | 95.1 | 121 | 158 | 99.4 | 159 | 137 | 91.8 |
| VX-702 + embelin | 31.0 | 81.3 | 137 | 81.2 | 1070 | 66.5 | 60.8 | 32.1 | 26.8 |
| BI-78D3 + AS-252424 | 37.0 | 46.7 | 75.7 | 44.3 | 86.1 | 38.6 | 101 | 104 | 126 |
| cediranib + vismodegib | - | 175 | 289 | 88.9 | 160 | 60.1 | 115 | 32.9 | 39.6 |
| BI-78D3 + dorsomorphin | 228 | 92.3 | 155 | 67.9 | 51.9 | 150 | 57.3 | 114 | 208 |
| cediranib + BI-78D3 | - | 112 | 120 | 132 | 98.4 | 30.4 | 166 | 65.1 | 36.5 |
| embelin + cediranib | 154 | 54.8 | 60.2 | 125 | 74.6 | 140 | 21.1 | 86.7 | 371 |
| embelin + AS-252424 | - | 138 | 98.4 | 99.6 | - | 126 | - | 37.5 | 93.5 |
| VX-702 + AS-252424 | 157 | 207 | 135 | 66.7 | 83.6 | 129 | 192 | 74.7 | 74.3 |
| embelin + vismodegib | 201 | 85.9 | 103 | 45.8 | 87.2 | 57.9 | 144 | 79.2 | 85.7 |
| vismodegib + dorsomorphin | 638 | 128 | 154 | 142 | 250 | 88.6 | 118 | 61.1 | 86.5 |
| embelin + T0901317 | 239 | 130 | 57.3 | 136 | 147 | 93.3 | 69.7 | 173 | 85.2 |
| dorsomorphin + AS-252424 | 265 | 35.5 | 147 | 128 | 85.5 | 81.8 | 53.8 | 34.3 | 115 |
| vismodegib + T0901317 | 196 | 91.4 | 69.9 | 61.2 | 88.4 | 55.4 | 29.0 | 23.7 | 42.4 |
| AS-252424 + MK-2206 | 119 | 70.6 | 124 | 183 | 62.7 | 79.5 | 157 | 99.2 | 111 |

5 of the entries, repeated:

* embelin + dorsomorphin : COLO 829: 63.0; SK-MEL-30: 129; WM115: 149; MeWo: 38.6; SK-MEL-28: 187; WM451Lu: 45.7
* VX-702 + embelin : 501mel: 31.0; COLO 829: 81.3; SK-MEL-30: 137; WM115: 81.2; LB2518-MEL: 1070; MeWo: 66.5; MZ2-MEL: 60.8; SK-MEL-28: 32.1; WM451Lu: 26.8
* vismodegib + dorsomorphin : 501mel: 638; COLO 829: 128; SK-MEL-30: 154; WM115: 142; LB2518-MEL: 250; MeWo: 88.6; MZ2-MEL: 118; SK-MEL-28: 61.1; WM451Lu: 86.5
* MK-2206 + dorsomorphin : 501mel: 155; COLO 829: 126; SK-MEL-30: 124; WM115: 196; LB2518-MEL: 166; MeWo: 115; MZ2-MEL: 214; SK-MEL-28: 63.6; WM451Lu: 232
* dorsomorphin + cediranib : COLO 829: 87.0; SK-MEL-30: 77.2; WM115: 126; MeWo: 81.1; SK-MEL-28: 133; WM451Lu: 31.6